Source: publication PMC4494967
No constants are given. Whether binding was seen depends on the method and setting. In cells and extracts the contact can be indirect. Some results given as binding are weak or reduced against the parent protein; the word gives no strength. For some assays here: Where a sequence is shown, tags or fusion partners need not be part of it.

By UniProt entry, the sequences of proteins in these tests, tags left out.
UniProt P14635: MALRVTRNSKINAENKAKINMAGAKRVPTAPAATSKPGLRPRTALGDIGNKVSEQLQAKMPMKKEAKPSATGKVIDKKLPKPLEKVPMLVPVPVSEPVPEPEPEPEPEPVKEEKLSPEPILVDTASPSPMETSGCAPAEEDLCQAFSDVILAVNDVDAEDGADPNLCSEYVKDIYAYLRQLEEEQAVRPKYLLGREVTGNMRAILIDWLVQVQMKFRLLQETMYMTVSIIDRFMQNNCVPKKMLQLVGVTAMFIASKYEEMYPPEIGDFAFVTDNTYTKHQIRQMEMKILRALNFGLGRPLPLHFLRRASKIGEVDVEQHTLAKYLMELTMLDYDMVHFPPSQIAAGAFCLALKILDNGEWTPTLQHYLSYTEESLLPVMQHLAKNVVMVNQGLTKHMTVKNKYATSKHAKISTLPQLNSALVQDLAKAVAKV
UniProt Q93009: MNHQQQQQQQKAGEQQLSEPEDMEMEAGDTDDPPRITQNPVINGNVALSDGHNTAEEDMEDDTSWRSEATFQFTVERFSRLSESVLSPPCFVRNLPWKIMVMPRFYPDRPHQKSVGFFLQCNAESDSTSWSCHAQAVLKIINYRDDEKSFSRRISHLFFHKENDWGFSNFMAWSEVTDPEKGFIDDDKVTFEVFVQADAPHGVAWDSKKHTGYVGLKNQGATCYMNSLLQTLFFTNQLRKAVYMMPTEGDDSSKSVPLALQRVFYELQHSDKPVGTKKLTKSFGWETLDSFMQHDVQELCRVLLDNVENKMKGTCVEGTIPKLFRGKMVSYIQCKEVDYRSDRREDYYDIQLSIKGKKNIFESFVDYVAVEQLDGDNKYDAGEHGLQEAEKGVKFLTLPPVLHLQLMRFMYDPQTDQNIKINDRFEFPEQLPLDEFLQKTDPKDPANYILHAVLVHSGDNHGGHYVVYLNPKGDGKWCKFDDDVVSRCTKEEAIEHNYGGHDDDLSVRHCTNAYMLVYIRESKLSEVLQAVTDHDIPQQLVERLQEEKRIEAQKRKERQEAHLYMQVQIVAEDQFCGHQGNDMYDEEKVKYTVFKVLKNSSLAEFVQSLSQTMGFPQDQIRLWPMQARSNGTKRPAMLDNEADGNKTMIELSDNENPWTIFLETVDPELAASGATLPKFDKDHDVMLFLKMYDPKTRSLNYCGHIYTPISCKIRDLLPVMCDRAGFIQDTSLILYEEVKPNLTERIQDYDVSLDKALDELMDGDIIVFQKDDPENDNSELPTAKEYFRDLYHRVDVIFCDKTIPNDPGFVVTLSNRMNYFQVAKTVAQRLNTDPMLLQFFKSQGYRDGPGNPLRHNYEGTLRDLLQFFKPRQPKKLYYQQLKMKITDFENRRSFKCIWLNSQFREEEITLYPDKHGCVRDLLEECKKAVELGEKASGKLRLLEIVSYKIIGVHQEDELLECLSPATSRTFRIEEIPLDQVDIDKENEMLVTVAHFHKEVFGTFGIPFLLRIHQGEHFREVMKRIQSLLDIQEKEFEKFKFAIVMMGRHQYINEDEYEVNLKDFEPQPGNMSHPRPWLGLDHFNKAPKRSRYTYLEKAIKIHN
UniProt Q969H0: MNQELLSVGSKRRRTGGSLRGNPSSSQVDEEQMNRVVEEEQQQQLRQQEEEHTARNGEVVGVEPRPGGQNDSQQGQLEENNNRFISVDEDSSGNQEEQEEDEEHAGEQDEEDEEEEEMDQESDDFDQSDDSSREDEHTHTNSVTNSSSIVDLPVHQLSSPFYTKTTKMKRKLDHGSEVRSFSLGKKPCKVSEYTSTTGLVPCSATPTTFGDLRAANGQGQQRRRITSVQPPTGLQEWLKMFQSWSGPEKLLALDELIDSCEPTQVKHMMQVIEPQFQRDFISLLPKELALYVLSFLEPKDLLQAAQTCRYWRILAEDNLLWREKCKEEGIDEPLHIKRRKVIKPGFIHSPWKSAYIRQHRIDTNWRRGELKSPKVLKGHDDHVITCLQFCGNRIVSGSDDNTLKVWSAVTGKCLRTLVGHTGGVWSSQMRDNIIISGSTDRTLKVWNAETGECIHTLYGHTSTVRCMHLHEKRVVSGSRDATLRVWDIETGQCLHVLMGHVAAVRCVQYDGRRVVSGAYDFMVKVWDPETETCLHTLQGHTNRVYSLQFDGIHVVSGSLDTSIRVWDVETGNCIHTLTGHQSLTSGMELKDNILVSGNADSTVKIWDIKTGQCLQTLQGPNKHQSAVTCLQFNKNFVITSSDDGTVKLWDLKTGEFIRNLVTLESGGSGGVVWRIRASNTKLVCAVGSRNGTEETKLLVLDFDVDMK

How the values were obtained:
[1] = molecular target: T1, S-tag-GFP-CCDC6 (UniProt Q16204); assay: pull-down; S-protein (S-tag) pull-down of S-tag-GFP-CCDC6 from asynchronous or mitotic (nocodazole) HeLa Kyoto extracts; immunoblot with anti-cyclin B, anti-GSK3, anti-CCDC6
T1 sequence: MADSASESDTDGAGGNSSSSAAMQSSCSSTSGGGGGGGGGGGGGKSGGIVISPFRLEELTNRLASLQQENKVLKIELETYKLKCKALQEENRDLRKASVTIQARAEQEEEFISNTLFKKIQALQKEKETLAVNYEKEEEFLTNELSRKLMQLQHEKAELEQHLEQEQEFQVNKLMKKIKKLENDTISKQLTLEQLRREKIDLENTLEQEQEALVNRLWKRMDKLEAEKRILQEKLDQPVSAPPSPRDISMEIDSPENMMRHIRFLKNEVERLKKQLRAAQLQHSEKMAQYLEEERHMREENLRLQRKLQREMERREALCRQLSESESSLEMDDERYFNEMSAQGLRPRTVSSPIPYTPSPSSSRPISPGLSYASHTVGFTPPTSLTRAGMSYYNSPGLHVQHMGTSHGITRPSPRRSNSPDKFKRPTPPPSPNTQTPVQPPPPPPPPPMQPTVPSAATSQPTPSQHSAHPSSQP

[2] = molecular target: T2, myc-CCDC6 wild type (UniProt Q16204); assay: co-IP; 293T cells transfected with myc-CCDC6 constructs (wt, 1-223, TM); IP anti-myc from whole cell lysates, western blot for USP7
T2 sequence: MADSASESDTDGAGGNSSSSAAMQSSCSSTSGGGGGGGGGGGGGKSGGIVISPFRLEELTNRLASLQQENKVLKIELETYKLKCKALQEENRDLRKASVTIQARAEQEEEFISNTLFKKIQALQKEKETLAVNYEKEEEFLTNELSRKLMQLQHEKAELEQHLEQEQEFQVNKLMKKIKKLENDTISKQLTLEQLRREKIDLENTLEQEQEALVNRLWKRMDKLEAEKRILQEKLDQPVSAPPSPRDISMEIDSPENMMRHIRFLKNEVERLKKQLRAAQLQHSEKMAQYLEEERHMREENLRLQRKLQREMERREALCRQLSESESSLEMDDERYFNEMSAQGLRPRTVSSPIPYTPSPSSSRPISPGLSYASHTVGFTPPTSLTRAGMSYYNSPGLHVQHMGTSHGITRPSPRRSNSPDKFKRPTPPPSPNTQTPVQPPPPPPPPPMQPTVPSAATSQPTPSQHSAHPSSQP

[3] = molecular target: T3, myc-CCDC6 triple mutant SST359/413/427AAA (UniProt Q16204); assay: as above
T3 sequence: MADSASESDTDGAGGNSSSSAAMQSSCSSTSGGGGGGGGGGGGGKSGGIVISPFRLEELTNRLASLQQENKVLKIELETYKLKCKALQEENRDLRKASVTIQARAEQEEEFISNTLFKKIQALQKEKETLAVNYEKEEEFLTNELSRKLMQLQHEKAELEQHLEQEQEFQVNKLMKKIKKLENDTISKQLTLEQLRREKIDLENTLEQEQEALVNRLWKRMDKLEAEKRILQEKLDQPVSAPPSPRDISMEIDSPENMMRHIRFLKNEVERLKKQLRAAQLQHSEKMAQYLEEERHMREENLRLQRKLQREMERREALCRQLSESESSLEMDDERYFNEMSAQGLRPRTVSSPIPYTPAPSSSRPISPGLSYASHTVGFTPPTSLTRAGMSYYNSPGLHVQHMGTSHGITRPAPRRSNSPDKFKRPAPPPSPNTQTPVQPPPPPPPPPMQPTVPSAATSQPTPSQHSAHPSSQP

[4] = molecular target: T4, myc-tagged CCDC6 truncated mutant (1-223) (UniProt Q16204); assay: as above
T4 sequence: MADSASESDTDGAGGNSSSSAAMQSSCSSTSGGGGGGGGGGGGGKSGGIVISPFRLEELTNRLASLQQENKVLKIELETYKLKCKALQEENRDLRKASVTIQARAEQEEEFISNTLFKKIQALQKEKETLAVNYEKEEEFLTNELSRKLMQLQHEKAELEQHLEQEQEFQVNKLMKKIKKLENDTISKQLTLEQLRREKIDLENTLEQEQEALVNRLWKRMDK

[5] = molecular target: T5, endogenous CCDC6 (293T) (human (endogenous in 293T)) (UniProt Q16204); assay: co-IP; endogenous CCDC6 and USP7 from parental 293T cells; immunocomplexes analysed by western blot
T5 sequence: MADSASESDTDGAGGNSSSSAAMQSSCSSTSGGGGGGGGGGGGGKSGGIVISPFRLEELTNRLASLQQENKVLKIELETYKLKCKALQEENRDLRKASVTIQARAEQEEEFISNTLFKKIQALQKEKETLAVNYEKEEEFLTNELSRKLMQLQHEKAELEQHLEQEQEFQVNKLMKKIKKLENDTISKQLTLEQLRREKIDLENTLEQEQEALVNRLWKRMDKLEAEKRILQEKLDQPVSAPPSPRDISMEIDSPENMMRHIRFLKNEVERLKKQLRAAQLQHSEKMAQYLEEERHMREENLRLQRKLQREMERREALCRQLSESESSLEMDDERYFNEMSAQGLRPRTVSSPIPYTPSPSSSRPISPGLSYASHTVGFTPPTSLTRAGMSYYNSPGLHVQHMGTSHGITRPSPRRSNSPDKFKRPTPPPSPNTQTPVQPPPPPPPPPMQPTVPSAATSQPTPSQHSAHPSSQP

[6] = molecular target: T2, myc-CCDC6 wild type; assay: co-IP; 293T cells co-transfected with myc-CCDC6 WT or TM and HA-FBXW7, in presence of MG132 (25 uM); IP anti-myc, immunoblot anti-HA
[7] = molecular target: T3, myc-CCDC6 triple mutant SST359/413/427AAA; assay: as above

cyclin B1 (from UniProt P14635 1-433)
binding [1]: binds

USP7 (from UniProt Q93009 1-1102) (enzyme)
binding [2]: binds
binding [3]: binds
binding [4]: binds
binding [5]: binds

HA-FBXW7 (from UniProt Q969H0 1-707)
binding [6]: binds
binding [7]: binds

B1: endogenous CCDC6 (HeLa Kyoto) (protein, UniProt Q16204 1-474)
chain: MADSASESDTDGAGGNSSSSAAMQSSCSSTSGGGGGGGGGGGGGKSGGIVISPFRLEELTNRLASLQQENKVLKIELETYKLKCKALQEENRDLRKASVTIQARAEQEEEFISNTLFKKIQALQKEKETLAVNYEKEEEFLTNELSRKLMQLQHEKAELEQHLEQEQEFQVNKLMKKIKKLENDTISKQLTLEQLRREKIDLENTLEQEQEALVNRLWKRMDKLEAEKRILQEKLDQPVSAPPSPRDISMEIDSPENMMRHIRFLKNEVERLKKQLRAAQLQHSEKMAQYLEEERHMREENLRLQRKLQREMERREALCRQLSESESSLEMDDERYFNEMSAQGLRPRTVSSPIPYTPSPSSSRPISPGLSYASHTVGFTPPTSLTRAGMSYYNSPGLHVQHMGTSHGITRPSPRRSNSPDKFKRPTPPPSPNTQTPVQPPPPPPPPPMQPTVPSAATSQPTPSQHSAHPSSQP
binding [1]: binds
